# Experimental data reported in patent publication US8901156B2, “Compounds and methods” (Tempero Pharmaceuticals, Inc., priority 2010, dated 2014).
# Amino acid sequences for entries named in this document (tags omitted). Residues count along the entry.
# UniProt Q9UKV0, 1-1066 isoform Q9UKV0-5: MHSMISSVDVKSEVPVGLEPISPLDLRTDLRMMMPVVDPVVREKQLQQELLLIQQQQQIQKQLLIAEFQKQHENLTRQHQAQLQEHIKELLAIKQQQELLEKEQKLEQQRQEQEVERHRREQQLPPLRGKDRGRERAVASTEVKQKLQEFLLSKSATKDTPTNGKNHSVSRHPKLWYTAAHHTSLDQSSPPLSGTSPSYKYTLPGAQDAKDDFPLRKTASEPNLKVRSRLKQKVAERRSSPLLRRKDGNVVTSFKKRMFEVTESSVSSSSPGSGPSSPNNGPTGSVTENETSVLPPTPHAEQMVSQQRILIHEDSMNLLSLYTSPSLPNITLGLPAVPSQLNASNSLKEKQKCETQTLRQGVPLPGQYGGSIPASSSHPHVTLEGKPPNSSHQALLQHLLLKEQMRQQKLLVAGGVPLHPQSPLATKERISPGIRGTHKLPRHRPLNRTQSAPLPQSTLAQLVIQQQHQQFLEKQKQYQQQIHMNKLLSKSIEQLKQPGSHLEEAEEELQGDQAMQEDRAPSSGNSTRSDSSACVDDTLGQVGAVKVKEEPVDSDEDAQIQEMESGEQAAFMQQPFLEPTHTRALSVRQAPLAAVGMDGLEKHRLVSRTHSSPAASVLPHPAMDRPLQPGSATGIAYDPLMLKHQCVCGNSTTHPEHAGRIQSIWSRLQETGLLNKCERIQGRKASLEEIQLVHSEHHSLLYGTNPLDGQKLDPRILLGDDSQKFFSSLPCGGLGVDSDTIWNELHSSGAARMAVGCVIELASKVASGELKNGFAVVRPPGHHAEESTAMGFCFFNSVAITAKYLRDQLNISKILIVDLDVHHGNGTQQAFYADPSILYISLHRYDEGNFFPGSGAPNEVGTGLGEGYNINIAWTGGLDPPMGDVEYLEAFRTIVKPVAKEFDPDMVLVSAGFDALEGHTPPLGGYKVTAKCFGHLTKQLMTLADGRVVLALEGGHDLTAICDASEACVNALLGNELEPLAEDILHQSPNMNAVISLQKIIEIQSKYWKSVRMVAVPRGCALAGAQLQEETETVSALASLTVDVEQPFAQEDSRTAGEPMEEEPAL
# Where a name gives a salt, the structure may show the parent alone. Some results were stated once for a whole list of compounds, not compound by compound.
# Target: T1, Recombinant HDAC9 isoform 4 (Homo sapiens, UniProt Q9UKV0)
# T1 construct: purchased BPS Bioscience
# Test: Histone Deacetylase 9 (HDAC9) inhibition assay, fluorogenic substrate
# Type: biochemical
# Details: mean of a minimum of 2 experiments; 11 point 3x dilution series from 100 uM; substrate 4.5 uM
compound,measurement,value
"O=C(NCCc1cnc(-c2ccccc2)s1)c1cccc(-c2noc(C(F)(F)F)n2)c1 [Example 85, N-(2-(2-Phenylthiazol-5-yl)ethyl)-3-(5-(trifluoromethyl)-1,2,4-oxadiazol-3-yl)benzamide]","mean pIC50, inhibition of HDAC9",greater than 4.8
"N#Cc1ccc(-c2csc(C3(CNC(=O)c4cccc(-c5noc(C(F)(F)F)n5)c4)CCOCC3)n2)cc1 [Example 30, N-((4-(4-(4-Cyanophenyl)thiazol-2-yl)tetrahydro-2H-pyran-4-yl)methyl)-3-(5-(trifluoromethyl)-1,2,4-oxadiazol-3-yl)benzamide]","mean pIC50, inhibition of HDAC9",greater than 4.8
"O=C(NCC1(c2nc(-c3ccccc3)cs2)CC1)c1cccc(-c2noc(C(F)(F)F)n2)c1 [Example 49, N-((1-(4-Phenylthiazol-2-yl)cyclopropyl)methyl)-3-(5-(trifluoromethyl)-1,2,4-oxadiazol-3-yl)benzamide]","mean pIC50, inhibition of HDAC9",greater than 4.8
"O=C(NCCc1nc(-c2ccccc2)n[nH]1)c1cccc(-c2noc(C(F)(F)F)n2)c1 [Example 48, N-(2-(3-Phenyl-1H-1,2,4-triazol-5-yl)ethyl)-3-(5-(trifluoromethyl)-1,2,4-oxadiazol-3-yl)benzamide]","mean pIC50, inhibition of HDAC9",greater than 4.8
"CC(CNC(=O)c1cncc(-c2noc(C(F)(F)F)n2)c1)c1cn(C)c(-c2ccccc2)n1 (stereo not shown) [Example 115, N-(2-(1-Methyl-2-phenyl-1H-imidazol-4-yl)propyl)-5-(5-(trifluoromethyl)-1,2,4-oxadiazol-3-yl)nicotinamide]","mean pIC50, inhibition of HDAC9",greater than 4.8
"O=C(NCC1(c2nc(-c3ccccc3)cs2)CCOCC1)C1CC1c1noc(C(F)(F)F)n1 (stereo not shown) [Example 37, N-((4-(4-Phenylthiazol-2-yl)tetrahydro-2H-pyran-4-yl)methyl)-2-(5-(trifluoromethyl)-1,2,4-oxadiazol-3-yl)cyclopropanecarboxamide]","mean pIC50, inhibition of HDAC9",greater than 4.8
"CN(C)CCOc1ccc(CNC(=O)c2cccc(-c3noc(C(F)(F)F)n3)c2)cc1 [Example 2, N-(4-(2-(Dimethylamino)ethoxy)benzyl)-3-(5-(trifluoromethyl)-1,2,4-oxadiazol-3-yl)benzamide]","mean pIC50, inhibition of HDAC9",greater than 4.8
"O=C(NCC1(c2nc(C3CCCCC3)cs2)CCOCC1)c1cccc(-c2noc(C(F)(F)F)n2)c1 [Example 19, N-((4-(4-Cyclohexylthiazol-2-yl)tetrahydro-2H-pyran-4-yl)methyl)-3-(5-(trifluoromethyl)-1,2,4-oxadiazol-3-yl)benzamide]","mean pIC50, inhibition of HDAC9",greater than 4.8
"CN(C)C(CNC(=O)c1cccc(-c2noc(C(F)(F)F)n2)c1)c1coc(-c2ccc(F)cc2)n1 (stereo not shown) [Example 96, N-(2-(Dimethylamino)-2-(2-(4-fluorophenyl)oxazol-4-yl)ethyl)-3-(5-(trifluoromethyl)-1,2,4-oxadiazol-3-yl)benzamide hydrochloride]","mean pIC50, inhibition of HDAC9",greater than 4.8
"O=C(NCCCc1nc(-c2ccccc2)cs1)c1cccc(-c2noc(C(F)(F)F)n2)c1 [Example 70, N-(3-(4-Phenylthiazol-2-yl)propyl)-3-(5-(trifluoromethyl)-1,2,4-oxadiazol-3-yl)benzamide]","mean pIC50, inhibition of HDAC9",greater than 4.8
"CC(C)(CNC(=O)c1cncc(-c2noc(C(F)(F)F)n2)c1)c1csc(-c2ccc(F)cc2)n1 [Example 45, N-(2-(2-(4-Fluorophenyl)thiazol-4-yl)-2-methylpropyl)-5-(5-(trifluoromethyl)-1,2,4-oxadiazol-3-yl)nicotinamide]","mean pIC50, inhibition of HDAC9",greater than 4.8
"CC(C)(CNC(=O)c1cncc(-c2noc(C(F)(F)F)n2)c1)c1coc(-c2ccccc2)n1 [Example 130, N-(2-Methyl-2-(2-phenyloxazol-4-yl)propyl)-5-(5-(trifluoromethyl)-1,2,4-oxadiazol-3-yl)nicotinamide]","mean pIC50, inhibition of HDAC9",greater than 4.8
"CC(C)(CNC(=O)c1cccc(-c2noc(C(F)(F)F)n2)c1)c1cccc(-c2ccc(F)cc2)c1 [Example 123, N-(2-(4′-Fluoro-[1,1′-biphenyl]-3-yl)-2-methylpropyl)-3-(5-(trifluoromethyl)-1,2,4-oxadiazol-3-yl)benzamide]","mean pIC50, inhibition of HDAC9",greater than 4.8
"O=C(NCC1(c2nc(-c3ccccc3)cs2)CCOCC1)c1cccc(-c2ccc(C(=O)C(F)(F)F)s2)c1 [Example 119, N-((4-(4-Phenylthiazol-2-yl)tetrahydro-2H-pyran-4-yl)methyl)-3-(5-(2,2,2-trifluoroacetyl)thiophen-2-yl)benzamide]","mean pIC50, inhibition of HDAC9",greater than 4.8
"CC(C)(CNC(=O)c1cncc(-c2ccc(C(=O)C(F)(F)F)s2)c1)c1coc(-c2ccc(F)cc2)n1 [Example 89, N-(2-(2-(4-Fluorophenyl)oxazol-4-yl)-2-methylpropyl)-5-(5-(2,2,2-trifluoroacetyl)thiophen-2-yl)nicotinamide]","mean pIC50, inhibition of HDAC9",greater than 4.8
"CC(C)(CNC(=O)c1cncc(-c2noc(C(F)F)n2)c1)c1coc(-c2ccc(F)cc2)n1 [Example 95, 5-(5-(Difluoromethyl)-1,2,4-oxadiazol-3-yl)-N-(2-(2-(4-fluorophenyl)oxazol-4-yl)-2-methylpropyl)nicotinamide]","mean pIC50, inhibition of HDAC9",greater than 4.8
"CC(C)(CNC(=O)c1cncc(-c2noc(C(F)(F)F)n2)c1)c1coc(-c2ccc(F)cc2)n1 [Example 121, N-(2-(2-(4-Fluorophenyl)oxazol-4-yl)-2-methylpropyl)-5-(5-(trifluoromethyl)-1,2,4-oxadiazol-3-yl)nicotinamide]","mean pIC50, inhibition of HDAC9",greater than 4.8
"O=C(NCCc1nc(-c2ccc(F)cc2)cs1)c1cncc(-c2noc(C(F)(F)F)n2)c1 [Example 53, N-(2-(4-(4-Fluorophenyl)thiazol-2-yl)ethyl)-5-(5-(trifluoromethyl)-1,2,4-oxadiazol-3-yl)nicotinamide]","mean pIC50, inhibition of HDAC9",greater than 4.8
"COc1cc(C(=O)NCC2(c3nc(-c4ccccc4)cs3)CCOCC2)cc(-c2noc(C(F)(F)F)n2)c1 [Example 28, 3-Methoxy-N-((4-(4-phenylthiazol-2-yl)tetrahydro-2H-pyran-4-yl)methyl)-5-(5-(trifluoromethyl)-1,2,4-oxadiazol-3-yl)benzamide]","mean pIC50, inhibition of HDAC9",greater than 4.8
"CC1(C)CC(CNC(=O)c2cccc(-c3noc(C(F)(F)F)n3)c2)(c2nc(-c3ccc(F)cc3)cs2)CCO1 (stereo not shown) [Example 31, N-((4-(4-(4-Fluorophenyl)thiazol-2-yl)-2,2-dimethyltetrahydro-2H-pyran-4-yl)methyl)-3-(5-(trifluoromethyl)-1,2,4-oxadiazol-3-yl)benzamide]","mean pIC50, inhibition of HDAC9",greater than 4.8
"COC(CNC(=O)c1cccc(-c2noc(C(F)(F)F)n2)c1)c1coc(-c2ccc(F)cc2)n1 (stereo not shown) [Example 117, N-(2-(2-(4-Fluorophenyl)oxazol-4-yl)-2-methoxyethyl)-3-(5-(trifluoromethyl)-1,2,4-oxadiazol-3-yl)benzamide]","mean pIC50, inhibition of HDAC9",greater than 4.8
"CC(C)(CNC(=O)c1cccc(-c2noc(C(F)(F)F)n2)c1)c1nc(-c2ccc(Cl)cc2)n[nH]1 [Example 68, N-(2-(3-(4-Chlorophenyl)-1H-1,2,4-triazol-6-yl)-2-methylpropyl)-3-(5-(trifluoromethyl)-1,2,4-oxadiazol-3-yl)benzamide]","mean pIC50, inhibition of HDAC9",greater than 4.8
